# From patent US20240327454A1, “DETERGENT AND METHOD FOR PURIFYING A BIOTHERAPEUTIC” (MEDIMMUNE, LLC, priority 2020, published 2024)
# Experiments:
# [1] = Endotoxin clearance from Lysozyme solution, detergent wash on cation exchange (SP Fast Flow); design: species or system E. coli; conditions: 1% detergent wash
# [2] = Endotoxin clearance from mAb solution, detergent wash on protein-A affinity (MabSelectSuRe); design: species or system E. coli; conditions: 1% detergent wash
# Host Cell Protein (HCP) [3] = test: HCP clearance, detergent wash on LambdaFabSelect column, HCP ELISA; design: species or system CHO; conditions: 1% detergent wash
# Host Cell Protein (HCP) [4] = test: HCP clearance, detergent spiked into cell harvest material before LambdaFabSelect column, HCP ELISA; design: species or system CHO
compound,measurement,setting,value
"CCCCCCCCCCCCOCCOCCOCCOCCOCCOCCOCCOCCOCCO [Brij L9, 3,6,9,12,15,18,21,24,27-nonaoxanonatriacontan-1-ol]",Normalized Eluate Yield,[1],0.8
same,Endotoxin,"[1]; starting endotoxin 717, listed as Brij-L9",0.39 EU/mg
same,Normalized Eluate Yield,[2],1.02
same,Endotoxin,[2]; starting endotoxin 1911,below 1 EU/mg
same,Endotoxin,"[2]; starting endotoxin 1911, listed as Brij-L9",0.88 EU/mg
"CCCCCCCCCCCCOCCOCCOCCOCCOCCOCCOCCOCCOCCO [Laureth-9, 3,6,9,12,15,18,21,24,27-nonaoxanonatriacontan-1-ol]",Endotoxin,[1]; starting endotoxin 717,below 1 EU/mg
Triton X-100 [reference compound],HCP,Host Cell Protein (HCP) [3]; LambdaFabSelect eluate,1856 ng/mg
same,Normalized Eluate Yield,Host Cell Protein (HCP) [3]; normalized to 0.5M NaCl wash control,1.00
same,HCP,"Host Cell Protein (HCP) [4]; 2% detergent spike into cell harvest, LambdaFabSelect eluate",1099 ng/mg
same,Normalized Eluate Yield,"Host Cell Protein (HCP) [4]; 2% detergent spike, normalized to no detergent spike control",1.0
